Reference: PubChem BioAssay AID686938 (Drosophila RNAi Screening Center, 2013)

- Assay: 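Knock-downs reducing store-operated calcium influx in Drosophila cells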 (primary screen)
- Cell system: Drosophila S2R+ cells
- Knock-down reagent: long dsRNA against Drosophila genes, about 0.25 µg dsRNA per well, roughly 10,000 cells
- Time to read-out: 5 days of knock-down before the calcium assay
- Treatment: thapsigargin (SERCA pump blocker) to empty calcium stores; entry signal taken 4 min after adding it
- Measurement: 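Duplicate raw fluo-4 intensities per well from a plate reader, at rest and four minutes after thapsigargin emptied calcium stores; entry-to-rest ratio filled for only some wells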
- Reading the numbers: calcium entry signal: higher = stronger calcium signal after store depletion; entry to resting ratio: higher = more calcium entry relative to resting level; resting calcium signal: higher = higher resting calcium signal
- Call rule: 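Called when the plate z-score of the entry-to-rest ratio, mean of duplicates, falls below −3; wells with low overall dye signal (Fmax z below −2) or more than five off-targets excluded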
- Meaning of the calls: active = strongly reduced calcium entry; inactive = no strong reduction
The screen tested about 23,000 reagents; below is a random part of those that have a named target and a result. In the full data, 75 (0.33%) got an active call. 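Raw plate signals without normalisation; calls rest on plate z-scores that were not deposited; ratio present for only 364 wells.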 A number with no mark means an inactive call. Names joined by + are all predicted targets of the reagent. Not given: the dose of the treatment.

predicted target | amplicon | calcium entry signal, replicate 1 (fluorescence units) | calcium entry signal, replicate 2 (fluorescence units) | entry to resting ratio | resting calcium signal, replicate 1 (fluorescence units) | resting calcium signal, replicate 2 (fluorescence units)
Vha16-2 (Vacuolar H[+] ATPase 16kD subunit 2) | DRSC10873 | 2.56e7 | 3.95e7 | – | 1.50e7 | 1.66e7
ppk9 (pickpocket 9) | DRSC04134 | 4.84e7 | 5.37e7 | – | 2.43e7 | 2.23e7
ppk9 (pickpocket 9) | DRSC04135 | 5.63e7 | 5.10e7 | – | 2.62e7 | 2.26e7
CG13361 | DRSC17896 | 5.19e7 | 4.10e7 | 2.3 | 2.30e7 | 1.89e7
CG13293 | DRSC09967 | 2.62e7 | 4.82e7 | – | 1.18e7 | 1.93e7
Serinc (Serine incorporator) | DRSC11296 | 4.28e7 | 4.45e7 | – | 1.87e7 | 2.69e7
Teh3 (tipE homolog 3) | DRSC08537 | 4.42e7 | 4.26e7 | – | 2.18e7 | 2.00e7
PGAP1 (Post-GPI attachment to proteins 1) | DRSC18286 | 2.89e7 | 3.39e7 | – | 1.43e7 | 1.59e7
Nha2 + asRNA:CR43454 | DRSC13594 | 3.26e7 | 3.02e7 | – | 1.77e7 | 1.61e7
Tb (Tubby) | DRSC15815 | 2.58e7 | 3.59e7 | – | 1.35e7 | 1.75e7
CG7448 (retired record) | DRSC11828 | 4.07e7 | 4.75e7 | – | 1.93e7 | 3.02e7
CG7448 (retired record) | DRSC22485 | 4.37e7 | 3.55e7 | – | 2.20e7 | 1.63e7
ImpL1 (Ecdysone-inducible gene L1) | DRSC11197 | 4.72e7 | 3.48e7 | – | 3.00e7 | 1.56e7
CG43342 | DRSC13561 | 4.53e7 | 3.64e7 | – | 2.20e7 | 1.73e7
CG17065 | DRSC20544 | 2.23e7 | 4.11e7 | – | 1.59e7 | 1.81e7
alpha-Est1 (alpha-Esterase-1) | DRSC12612 | 2.41e7 | 2.48e7 | – | 1.09e7 | 1.20e7
Strica (Ser/Thr-rich caspase) | DRSC04920 | 4.62e7 | 4.19e7 | – | 2.27e7 | 1.89e7
CG32176 | DRSC10057 | 5.69e7 | 7.72e7 | – | 2.37e7 | 2.95e7
CG32176 | DRSC10058 | 5.28e7 | 6.58e7 | – | 2.20e7 | 2.93e7
CG10486 | DRSC09735 | 2.03e7 | 3.59e7 | – | 1.01e7 | 1.53e7
CG31088 | DRSC13123 | 2.86e7 | 3.65e7 | – | 1.29e7 | 1.66e7
CG6310 | DRSC10619 | 2.79e7 | 3.94e7 | – | 1.51e7 | 1.75e7
Vha100-3 (Vacuolar H[+] ATPase 100kD subunit 3) | DRSC05760 | 3.54e7 | 4.37e7 | – | 1.68e7 | 2.12e7
CG1092 | DRSC12151 | 4.37e7 | 4.42e7 | – | 1.91e7 | 3.17e7

Limited to “calcium entry signal, replicate 1 (fluorescence units)” (4 entries from above):
CG31088 [DRSC13123]	2.86e7
CG6310 [DRSC10619]	2.79e7
Vha100-3 (Vacuolar H[+] ATPase 100kD subunit 3) [DRSC05760]	3.54e7
CG1092 [DRSC12151]	4.37e7
